Results taken from PubChem BioAssay AID1347075 (National Center for Advancing Translational Sciences (NCATS), 2019).
The campaign covered roughly 400,000 compounds. About 5,500 (1.4%) were called active. This list was built around the results that the source calls inconclusive (neither active nor inactive); the mix of calls is not that of the screen. The call rests on the fitted dose curve; in most records, active means well fitted cell-killing curve with a large enough effect; inconclusive means small, poorly fitted or top-dose-only effect, or effect the other way; inactive means flat fitted curve, though single readings scatter. Potencies of inconclusive entries are doubtful fits and often do not repeat.

Test: qHTS assay for MDR1-selective chemotherapeutics: Primary screen using the parental adenocarcinoma cell KB-3-1; further: nearly all actives have a fitted effect of over 60% in size
Conditions: KB-3-1 viability, CellTiter-Glo ATP luminescence, 72 h; activity change, negative = cytotoxic: at 46.1 µM (top of the series)
Summary of the method: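 KB-3-1 cells, DMEM (no phenol red) + 10% FBS; compound by pin transfer, 72 h, 37 °C. Readout: CellTiter-Glo luminescence after 10 min. Data normalized, curve-fitted.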
On the % scale 0 is the no-effect control and ±100 the full control effect; potency means the concentration at half of the fitted maximal effect.

Compound	Potency	activity change, negative = cytotoxic
CC(=O)Nc1cccc(OCC(O)Cn2c(C)nc3ccccc32)c1 (stereo not given)	inconclusive: 14.6 µM [cytotoxic, partial curve]	
O=S(=O)(c1ccc2[nH]c3c(c2c1)CCCCC3)N1CCN(c2ccccc2)CC1	inactive	
COc1ccc(NC(=O)N2CCN(C(=O)C(Cc3ccc(F)cc3)NC(C)=O)CC2)cc1 (stereo not given)	inconclusive: 29.1 µM [rising, single point]	
CCOC(=O)Nc1ccc2c(c1)N(C(=O)OC)c1ccccc1CC2	inconclusive: 29.1 µM [cytotoxic, single point]	
COc1ccc(NC(=O)c2ccccc2OCC(=O)Nc2ccc(Br)cc2)cc1	inactive	
CC(=O)Nc1cccc(NC(=O)CSc2nc3c(=O)n(C)c(=O)n(C)c3n2C)c1	inactive	
Cc1ccc2cc3c(nc2c1)OCC3	inactive	
COc1cc([N+](=O)[O-])cc(/C=N/NC(=O)C(C)Nc2cccc(C)c2)c1O (stereo not given)	inconclusive: 29.1 µM [cytotoxic, single point]	
Cc1ccccc1C1NC(c2ccccc2C)C([N+](=O)[O-])C(C)(C)C1[N+](=O)[O-] (stereo not given)	inconclusive: 14.6 µM [cytotoxic, single point]	
Cc1cccc(N2CCN(C(=O)CC(NC(=O)c3ccccc3Cl)c3ccccc3)CC2)c1C (stereo not given)	inactive	
O=C(NCCc1ccccn1)c1cc(-c2ccc(Cl)c(Cl)c2Cl)nc2ccccc12	inconclusive: 29.1 µM [cytotoxic, single point]	
CNc1ccc(Br)cc(C(=O)/C=C/c2cc(OC)ccc2OC)c1=O	inconclusive: 18.4 µM [cytotoxic, single point]	
O=C(CSc1ncn[nH]1)c1ccc(OC(F)F)cc1	inconclusive: 32.6 µM [rising, partial curve, poor fit]	
O=C(NC[C@@H]1CC[C@@H](Cc2ccc(-c3ccccc3)cc2)O1)Nc1ccc(Br)cc1	inconclusive: 29.1 µM [cytotoxic, single point]	
CC(=O)C1=C(c2ccc(Cl)c(Cl)c2)N(C(C)=O)n2c(C)nnc2S1	inconclusive: 25.9 µM [cytotoxic, single point]	
CCc1ccccc1NC(=O)c1ccc(OCc2c(C)noc2C)cc1	inconclusive: 1.16 µM [cytotoxic, full curve]	
CCN1C=C(Cc2ccc(OC)cc2)C2=C(C1)C(c1ccc(OC)cc1)C(C#N)=C(N)O2 (stereo not given)	inconclusive: 32.6 µM [cytotoxic, single point]	
COCCN(Cc1ccccc1)C(=O)Cc1ccc(OC)c(S(=O)(=O)N2CCOCC2)c1	inconclusive: 8.2 µM [rising, partial curve, poor fit]	
CCCSCCCNC(=O)CN1C(=O)COc2ccc(S(=O)(=O)N3CCC(C)CC3)cc21	inactive	
COc1cc(/C=C/C(=O)Nc2ccc3[nH]c(=O)[nH]c3c2)cc(OC)c1OC	inconclusive: 18.4 µM [rising, single point]	
CCCC(O)(c1ccc(Cl)cc1)C(CN1CCOCC1)c1ccc(Cl)cc1 (stereo not given)	inconclusive: 16.4 µM [cytotoxic, single point]	
COc1ccccc1Cc1c(C(C)(C)C)nc2ccc(C)cn12	inconclusive: 16.4 µM [cytotoxic, single point]	

Copied from the list:
Potency with O=S(=O)(c1ccc2[nH]c3c(c2c1)CCCCC3)N1CCN(c2ccccc2)CC1 is entered as inactive
Potency with COc1ccc(NC(=O)c2ccccc2OCC(=O)Nc2ccc(Br)cc2)cc1 is entered as inactive
Potency with CNc1ccc(Br)cc(C(=O)/C=C/c2cc(OC)ccc2OC)c1=O is entered as inconclusive: 18.4 µM [cytotoxic, single point]
Potency with O=C(NC[C@@H]1CC[C@@H](Cc2ccc(-c3ccccc3)cc2)O1)Nc1ccc(Br)cc1 is entered as inconclusive: 29.1 µM [cytotoxic, single point]

(more compounds)

Compound	Potency	activity change, negative = cytotoxic
Cc1ccc(-c2csc(NC(=O)C3CCN(S(=O)(=O)c4cccs4)CC3)n2)cc1	active: 6.51 µM	
Cc1nc2c(C(=O)N(C)Cc3ccccc3)c[nH]n2c(=O)c1Cc1ccc(Cl)cc1	inconclusive: 18.4 µM [cytotoxic, single point]	
CCCCOCCCNC(=O)C[C@@H]1C[C@@]2(C(=O)OC)CCCCC=C2N(Cc2cccc3ccccc23)C1=O	inconclusive: 29.1 µM [cytotoxic, single point]	
CCCNC(=O)c1ccc2c(=O)c(O)c(-c3ccc(C)cc3)[nH]c2c1	inconclusive: 16.4 µM [cytotoxic, partial curve]	
Cc1ccc(OCC(=O)NCCCNC(=O)c2ccco2)cc1	inconclusive: 20.6 µM [rising, single point]	
Cc1ccc(S(=O)(=O)Nc2ccc3cc([N+](=O)[O-])ccc3c2[N+](=O)[O-])cc1	inconclusive: 29.1 µM [cytotoxic, single point]	
COc1ccc(OC)c(/C=N/n2c(COc3ccccc3)n[nH]c2=S)c1		inconclusive: -5.33%
CCCCOc1ccc(S(=O)(=O)N2CCN(c3ccccc3OCC)CC2)cc1	inconclusive: 20.6 µM [cytotoxic, single point]	
CC(NC(=O)Cc1ccc(-c2ccccc2)cc1)c1ccccc1 (stereo not given)	inconclusive: 18.4 µM [cytotoxic, partial curve]	
Clc1ccc2c(N/N=C/c3ccc(Br)cc3)ccnc2c1	inconclusive: 29.1 µM [cytotoxic, single point]	
CCOC(=O)c1ccc(NC(=O)N2CCN(Cc3cccc(F)c3)CC2)cc1	inactive	
CCn1ncc(C2=NOC(C(=O)NCc3ccccc3)C2)c1C (stereo not given)	active: 1.64 µM	
CC(=O)N1CCC(=NNc2ncc(C(F)(F)F)cc2Cl)CC1	inconclusive: 16.4 µM [cytotoxic, single point]	
O=C(N/N=C/c1c(O)ccc2ccccc12)c1ccc(CO)nc1	inconclusive: 10.3 µM [cytotoxic, partial curve, poor fit]	
O=C(Oc1c(CN2CCOCC2)cc(Cl)c2cccnc12)c1ccccc1	inconclusive: 20.6 µM [cytotoxic, single point]	
CCCc1nc2sc3c(SCC(=O)NCc4ccco4)ncnc3c2c2c1CCC2	inconclusive: 29.1 µM [cytotoxic, single point]	
Cc1nc(C(F)(F)F)ccc1C(=O)N1CCCC(C)(C(=O)O)C1 (stereo not given)	inactive	
FC(F)(F)c1ccccc1N/N=C/c1cccnc1	inconclusive: 20.6 µM [rising, single point]	
CCOC(=O)c1c(C)[nH]c(C)c1C(=O)CSc1nc2ccccc2c(=O)n1-c1ccccc1C	inconclusive: 29.1 µM [cytotoxic, partial curve, poor fit]	
CC(C)Oc1ccc(C(=O)NC2(C(F)(F)F)NC(=O)N(CCCc3ccccc3)C2=O)cc1 (stereo not given)	inconclusive: 18.4 µM [cytotoxic, single point]	
CCCCC(=O)NC(=S)NNC(=O)c1ccc(Cl)cc1Cl	inconclusive: 29.1 µM [cytotoxic, single point]	
Cc1nc(NCCO)c2nnn(Cc3ccccc3F)c2n1	inactive	

Compound	Potency	activity change, negative = cytotoxic
Cc1ccc(S(=O)(=O)N(C)Cc2ccc(C(=O)NN=C(CC(C)C)CC(C)C)cc2)cc1	inconclusive: 25.9 µM [cytotoxic, single point]	
CC(C)(C)OC(=O)[C@H](Cc1ccccc1)NC(=O)c1nc[nH]c1C(=O)NC1CCN(C(=O)OC(C)(C)C)CC1	inconclusive: 20.6 µM [cytotoxic, single point]	
O=[N+]([O-])c1ccc(N=Cc2ccc(Br)c([N+](=O)[O-])c2)cc1	inconclusive: 18.4 µM [cytotoxic, single point]	
Cc1ccccc1NC(=O)/C=C/c1cccc(C(F)(F)F)c1	inactive	
O=C(COC(=O)Cn1cnc2ccccc21)Nc1cccc2c1C(=O)c1ccccc1C2=O	inconclusive: 11.6 µM [cytotoxic, single point]	
O=C1c2ccccc2C(=O)N1/N=C/c1ccc(Oc2ccc([N+](=O)[O-])cn2)cc1	inactive	
O=[N+]([O-])c1ccc(Nc2nc(NC3CCCCC3)nc(N3CCCC3)n2)cc1	inconclusive: 29.1 µM [cytotoxic, single point]	
COc1cc(-c2cc(C(=O)N3CCN(c4ccccn4)CC3)c3ccccc3n2)cc(OC)c1OC	inconclusive: 32.6 µM [cytotoxic, single point]	
CN(C)S(=O)(=O)c1cccc(NC(=O)CCCc2nc3ccccc3c(=O)[nH]2)c1	inconclusive: 29.1 µM [rising, single point]	
O=C1c2cccc3c([N+](=O)[O-])ccc(c23)C(=O)N1CC1CCCO1 (stereo not given)	inconclusive: 20.6 µM [cytotoxic, single point]	
O=C(Nc1cccc(Cl)c1)c1cc(S(=O)(=O)NCCc2ccc(Cl)cc2)ccc1F	inactive	
O=[N+]([O-])c1ccc2[nH]c3c(c2c1)CCCC3O (stereo not given)	inconclusive: 9.2 µM [cytotoxic, single point]	
CCC(=O)OC1(C#CCOc2ccc(OC)cc2)CCN(C)CC1	inactive	
Cn1nc(C(=O)Nc2ccccc2N2CCOCC2)ccc1=O	inconclusive: 23.1 µM [cytotoxic, single point]	
CC(=O)OC(C)C1C2=C(C(=O)CC1(C)O)C(=O)c1c(ccc(-c3ccc4c(c3O)C(=O)C3=C(C4=O)C(C(C)OC(C)=O)C(C)(O)CC3=O)c1O)C2=O (stereo not given)	inconclusive: 29.1 µM [cytotoxic, single point]	
C=CCOc1ccc(/C=C/C(=O)N2CCCN(S(=O)(=O)c3c(C)noc3C)CC2)cc1	inactive	
Fc1ccc(C(c2nnnn2CCc2ccccc2)N2CCCc3ccccc32)cc1 (stereo not given)	inconclusive: 25.9 µM [cytotoxic, single point]	
Cc1occc1C(=O)N/N=C/c1ccc2c(c1)OCO2	active: 14.6 µM	
CN/C(=C\[N+](=O)[O-])NCCSCc1ccc(CN(C)C)o1	inconclusive: 29.1 µM [rising, single point]	
O=C(CCCCCN1C(=O)c2cccc3cccc(c23)C1=O)NCCO	inconclusive: 13 µM [rising, partial curve]	
CCn1c2ccccc2c2cc(NC(=O)c3ccc([N+](=O)[O-])cc3)ccc21	inconclusive: 32.6 µM [cytotoxic, partial curve, poor fit]	
